According to PMC9321663, “The DevTox Germ Layer Reporter Platform: An Assay Adaptation of the Human Pluripotent Stem Cell Test” (Toxics, 2022):
Read-outs that look alike come from different tables or passages of the source.

What was measured:
[1] = test system: H9 embryonic stem cells; conditions: cited from earlier work
[2] = test system: SOX17 (endoderm marker) in RUES2-GLR cells; test: DevTox GLR-Endo assay: decrease in percent SOX17-positive cells (AEID 3094, Sox17_dn)
Method: (§1) The total test chemical incubation period was 48 h.
(§2) Assay plate controls included non-differentiated pluripotent cells maintained in complete Essential 8 Flex medium (baseline control), endoderm differentiated cells (differentiation control), endoderm differentiated cells treated with DMSO (0.2%) (solvent control), and TGF-ß receptor inhibitor SB431542 (1 µM)-treated cells (developmental toxicant-positive control) (Figure S3). All experiments were completed with a minimum of four biological replicates (n = 4).
(§3) (Supplementary Materials).

[3] = test system: RUES2-GLR cells; test: DevTox GLR-Endo assay: decrease in total cell count, cytotoxicity (AEID 3098, CellCount_dn); conditions: Table S2, cell count relative to DMSO
Method: as §1, §2, §3

[4] = test system: SOX17 in H9 human ESC line; conditions: SOX17 half-maximal inhibition concentration; read-out: hPST IC50; cited from earlier work

Row | Structure (SMILES) | quickPredict CV ([1]; cell viability) [µM] | quickPredict CV ([1]; concentration at cell viability cutoff) [µM] | DevTox % Max Inhibition ([2]; Table S2, percent SOX17-positive cells relative to DMSO) [%] | maximum observed effect level class (% max inhibition) ([2]; stratification of training set chemicals) | MAX_MED ([2]; tcpl plot AEID3094, maximum median response) [Percent Activity] | Cell Count % Max Inhibition [3] [%] | SOX17 ACC relative to cytotoxic concentration (in words) [2] | IC50 [4] [µM]
1 | C[C@@H]1C[C@H]2[C@@H]3CCC4=CC(=O)C=C[C@]4(C)[C@@]3(F)[C@@H](O)C[C@]2(C)[C@@]1(O)C(=O)CO [Dexamethasone] | 21.8 | 21.8 | 21.8449 | moderate (moderate (20–80% max inhibition)) | 21.8 | 23.7311 |  | 
2 | CN1CCN2c3ccccc3Cc3ccccc3C2C1 (centres unmarked) [Mianserin] |  |  |  |  |  |  | below cytotoxic concentrations | 3.4
